No end group written: not given here.
System: horse erythrocytes
Test: Haemolysis assay
Type: cell-based
Details: HC50 horse erythrocytes divided by minimum MIC
Description: Defibrinated horse erythrocytes (TCS Biosciences Ltd., Buckingham, UK) were used in the haemolysis assay. Peptides, from 1 μM to 512 μM, were tested with a 4% (v/v) erythrocyte suspension and were incubated at 37 °C for 2 h, while 1% Triton X-100 (Sigma-Aldrich, St. Louis, MO, USA) was acted as a positive control and phosphate-buffered saline (PBS) was used as a negative control. The sample supernatants were analysed at 550 nm on an ELISA plate reader (Biolise BioTek EL808, Winooski, VT, USA).

In order of falling “SI (Selectivity index, HC50 value/the minimum concentration value of inhibiting microbial growth)” value:
1. FLYIIGKLLSGLL-NH2 [VM-3Y]  105.6
2. FLKIIGKLLSGLL-NH2 [VM-3K]  11.20
3. FLPIIGKLLSGLL-NH2 [VM]  11.11
4. FLGIIGKLLSGLL-NH2 [VM-3G]  9.686
5. FLWIIGKLLSGLL-NH2 [VM-3W]  9.682
